# Test results taken from PubChem BioAssay AID540276 (National Center for Advancing Translational Sciences (NCATS), 2011).
# Among all 300,000 compounds or so, about 5,400 (1.8%) were called active. The inconclusive results got no clear call from the source; some entries with a clear call stand among them for comparison. Calls come from the whole dose curve; tested in HEK293 cells. A potency beside an inconclusive call is a rough fit, not a confirmed value.
# Experiment: qHTS for inhibitors of binding or entry into cells for Marburg Virus
# Details: Marburg virus pseudotyped entry inhibition, cell reporter; activity change, negative = inhibition: at 37.8 µM (top of the series) unless noted
# % is set by controls: 0 for no effect and ±100 for the full control effect; potency is the fitted concentration of half-maximal effect.
Compound,Potency,"activity change, negative = inhibition"
O=C(NCCN1C(=O)S/C(=C\c2ccc(F)cc2)C1=O)C1CCN(S(=O)(=O)c2cccs2)CC1,inactive,–
Cc1cccc(NC(=O)CCNC(=O)c2ccc(Br)cc2)c1C,"inconclusive: 2 µM [inhibitor, partial curve, poor fit]",–
O=C(Nc1cccc(Cl)c1N1CCCCC1)c1ccc2c(c1)OCCO2,"inconclusive: 35.5 µM [inhibitor, single point]",–
O=[N+]([O-])c1ccccc1S(=O)(=O)Nc1ccc(-c2ccc3nncn3n2)cc1,"inconclusive: 14.1 µM [activator, single point]",–
COc1ccc2nc(NC(=O)c3cc(=O)c4cc(C)c(C)cc4o3)sc2c1,inactive,–
Cc1ccc(NC(=O)COC(=O)/C=C/c2ccco2)cc1S(=O)(=O)N(C)C,inactive,–
O=C(CSc1nnc(C2CC2)n1-c1ccccc1)N1CCCC1,inactive,–
Cc1ccc(-c2nnc(SCC(=O)N/N=C/c3ccc(C)s3)n2-c2ccccc2)cc1,"inconclusive: 35.5 µM [inhibitor, single point]",–
FC(F)(F)c1nc(-c2ccccc2)ncc1-c1nnnn1-c1ccccc1,"inconclusive: 35.5 µM [inhibitor, single point]",–
COC(=O)c1cc(NC(=O)Cc2ccccc2[N+](=O)[O-])ccc1Cl,"inconclusive: 17.8 µM [inhibitor, partial curve, poor fit]",–
O=C(CSCc1ccccn1)Nc1ccccc1,"inconclusive: 10 µM [activator, partial curve, poor fit]",–
CCCCn1cnc2c(cnn2-c2ccc(Cl)cc2)c1=O,inactive,–
O=C(COc1ccc(Br)cc1)NNC(=O)c1cc(S(=O)(=O)N2CCOCC2)ccc1Cl,inactive,–
Cc1ccc(-c2cc(C(F)F)nc(N3CCOCC3)n2)cc1,"inconclusive: 11.2 µM [inhibitor, single point]",–
O=C(N/N=C/c1cn(-c2ccccc2)nc1-c1cc2ccccc2o1)c1c[nH]c2ccccc12,"inconclusive: 1.78 µM [activator, partial curve, poor fit]",–
OCC(O)CN(c1ccccc1)c1ccccc1 (stereo not drawn),"inconclusive: 35.5 µM [inhibitor, single point]",–
COCCCN1C(=O)c2ccc(C(=O)OCC(=O)NCc3cccc(OC)c3)cc2C1=O,–,inconclusive: 0.147% [activator]
CCn1cc(Cl)c(C(=O)NNC(=O)CCn2nc(C)c([N+](=O)[O-])c2C)n1,inactive,–
CCCCc1ccc(NC(=S)NCCc2ccc(S(N)(=O)=O)cc2)cc1,"inconclusive: 35.5 µM [inhibitor, single point]",–
O=C(COc1ccc(F)cc1)Nc1ccc(Cl)c(-c2nc3ccccc3[nH]2)c1,"inconclusive: 8.91 µM [inhibitor, partial curve, poor fit]",–
COc1ccccc1-c1nnc(C2CCN(S(=O)(=O)c3ccc(F)c(C)c3)CC2)o1,"inconclusive: 1.12 µM [inhibitor, full curve, poor fit]",–
Cc1ccc(Nc2nc(N)nc(CSc3nccn3C)n2)cc1,"inconclusive: 12.6 µM [inhibitor, single point]",–
NC(=O)c1ccc(Nc2ccc3c(c2)CCC3)c([N+](=O)[O-])c1,"inconclusive: 10 µM [inhibitor, partial curve, poor fit]",–
CCn1c(SCc2cc(=O)[nH]c3ccccc23)nc2c1c(=O)n(C)c(=O)n2C,"inconclusive: 23.1 µM [inhibitor, single point]",–
Nc1cc(Cl)ccc1C(=O)OCC(=O)N1CCCC1,inactive,–

# Taken from above.
# Entry for Cc1ccc(-c2nnc(SCC(=O)N/N=C/c3ccc(C)s3)n2-c2ccccc2)cc1 under Potency: inconclusive: 35.5 µM [inhibitor, single point]
# Entry for Cc1ccc(-c2cc(C(F)F)nc(N3CCOCC3)n2)cc1 under Potency: inconclusive: 11.2 µM [inhibitor, single point]

# (cont.)

Compound,Potency,"activity change, negative = inhibition"
O=C(COc1ccc(S(=O)(=O)N2CCCC2)cc1)NCc1ccccn1,inactive,–
Cc1ccc(C(=O)N2CCN(c3ccccc3)CC2)cc1S(=O)(=O)N1CCCC1,"inconclusive: 35.5 µM [inhibitor, single point]",–
COc1ccc(CCN(/C=C2\Sc3ccccc3C2=O)C(C)=O)cc1OC,"inconclusive: 3.98 µM [activator, single point]",–
COc1ccccc1NC(=O)c1cc2ccccc2o1,"inconclusive: 15.8 µM [inhibitor, single point]",–
Cc1ccc(S(=O)(=O)Nc2ccc(N3CCCCC3)cc2)cc1,"inconclusive: 25.1 µM [inhibitor, single point]",–
Cc1[nH]n(-c2ccc([N+](=O)[O-])cc2)c(=O)c1C=NCCN1CCN(C(=O)c2ccccc2F)CC1,"inconclusive: 0.651 µM [activator, full curve, poor fit]",–
O=C(c1csc2c1CCCC2)N1CCCCC1,"inconclusive: 4.61 µM [inhibitor, full curve, poor fit]",–
COc1ccc(CN2CCN(c3ncnc4scc(-c5ccc(F)cc5)c34)CC2)cc1,active: 12.6 µM,–
Nc1ccc(NC(=O)c2cccs2)c(Cl)c1,inactive,–
COc1ccc(C2C=C(c3ccccc3)Nc3nc(NC(=O)/C=C/c4ccc(Cl)cc4)nn32)cc1 (stereo not drawn),inactive,–
COc1cccc(C2C3=C(N=c4s/c(=C\c5cccc(O)c5)c(=O)n42)c2ccccc2CC3)c1OC (stereo not drawn),inactive,–
COc1ccccc1CNC(=O)CN1C(=O)NC(Cc2ccccc2)(c2ccccc2)C1=O (stereo not drawn),"inconclusive: 22.4 µM [inhibitor, partial curve]",–
COc1cccc(Nc2c3c(nc4c(-c5ccccc5)c(C)nn24)CCC3)c1,"inconclusive: 35.5 µM [inhibitor, single point]",–
NC(=O)CSc1nnc(-c2cccnc2)n1Cc1ccccc1,inactive,–
COc1cc(OC)c(CN2CCCN(C)CC2)cc1Br,"inconclusive: 1.26 µM [inhibitor, single point]",–
CCc1nc(NCc2ccccn2)c2oc3ccccc3c2n1,"inconclusive: 22.4 µM [inhibitor, single point]",–
CC(=O)c1cccc(NC(=O)CSc2ccc(-c3ccco3)nn2)c1,inactive,–
O=C(Cn1cnc2ccccc2c1=O)c1ccccc1,inactive,–
O=[N+]([O-])c1cn(Cc2ccc(Cl)cc2)cn1,"inconclusive: 2 µM [inhibitor, partial curve, poor fit]",–
CC(C)N(Cc1ccccc1)C(=O)COC(=O)c1c(F)cccc1F,inactive,–
CCOc1ccc(N2CC(c3nc4ccccc4n3CCOc3ccccc3)CC2=O)cc1 (stereo not drawn),"inconclusive: 35.5 µM [inhibitor, single point]",–
CCCCC(=O)Nc1ccc2oc(-c3cccnc3)nc2c1,inactive,–
Cc1ccc(NC(=O)c2c(Cl)nc3ccccn23)cc1,inactive,–
O=C(Oc1ccc2ccccc2c1Br)N1CCCCCC1,active: 1.16 µM,–
O=C(COc1ccccc1Cl)Nc1ccc2c(c1)OCO2,"inconclusive: 35.5 µM [inhibitor, single point]",–

Compound,Potency,"activity change, negative = inhibition"
Fc1ccc(CNC(=S)Nc2cccc(C(F)(F)F)c2)cc1,"inconclusive: 29.1 µM [inhibitor, single point]",–
O=C(Nc1cccc(F)c1)Nc1ccnn1C1CCN(C(=O)CCN2CCCO2)CC1,inactive,–
O=C(c1ccc(Br)o1)N1CCC(Cc2ccccc2)CC1,"inconclusive: 35.5 µM [activator, single point]",–
N/C(=N\OC(=O)CCC1CCCCC1)c1ccc([N+](=O)[O-])cc1,inactive,–
COc1ccc(N2CCN(C(=O)c3cccc(S(=O)(=O)N4CCc5ccccc54)c3)CC2)cc1,"inconclusive: 0.562 µM [inhibitor, full curve, poor fit]",–
O=C(O)CCCCCCNC(=O)c1cncc(O)c1,inactive,–
Cc1ccc(NC(=O)N2CCc3ccccc3C2)c(C)c1,"inconclusive: 7.08 µM [activator, partial curve, poor fit]",–
Cc1c(CN2CCC(CO)(Cc3cccc(C(F)(F)F)c3)CC2)c2ccccc2n1C,"inconclusive: 14.1 µM [inhibitor, partial curve, poor fit]",–
O=C(CNS(=O)(=O)c1cccc(Cl)c1)Nc1ccc(-c2nc3ccccc3s2)cc1,"inconclusive: 5.62 µM [inhibitor, single point]",–
N[C@@H](Cc1cc(O)c(O)cc1O)C(=O)O,active: 3.97 µM,–
COCC(=O)Nc1ccc(Br)c(C)c1,inactive,–
C=CCNC(=S)/N=c1/scc(C)n1C,"inconclusive: 20.6 µM [activator, single point]",–
COc1ccc(NC(=O)CSc2oc(-c3ccco3)nc2S(=O)(=O)c2ccccc2)c(OC)c1,inactive,–
COc1ccc(CNC(=O)CN(Cc2ccc(OC)cc2)C(=O)CCC(=O)Nc2nccs2)cc1,"inconclusive: 1 µM [inhibitor, full curve, poor fit]",–
COc1ccc(C(=O)Nc2nc3c(s2)Cc2cc(OC)ccc2-3)cc1,inactive,–
CCOC(=O)c1ccc(N2C(=O)C(O)=C(C(C)=O)C2c2ccccn2)cc1 (stereo not drawn),inactive,–
CCOc1ccc(NC(=O)CN(C)C(=O)c2cc(-c3ccco3)nc3ccccc23)cc1OCC,"inconclusive: 35.5 µM [inhibitor, single point]",–
CN(C)c1ccc(C(=S)N2CCN(c3ccccc3)CC2)cc1,inactive,–
O=C(c1cnn(C(=O)c2ccccc2)c1)c1ccccc1O,"inconclusive: 1.78 µM [activator, single point]",–
CN(C(=O)Cn1nnc(-c2ccc(S(C)(=O)=O)cc2)n1)c1ccccc1,inactive,–
Oc1[nH]c2ccccc2c1N=Nc1nc2ccccc2s1,"inconclusive: 0.184 µM [activator, full curve, poor fit]",–
Cc1nnc(C)n1/N=C/c1cccc(Oc2ccccc2)c1,inactive,–
Cc1nn(-c2ccccc2)c(C)c1/C=N/n1c(-c2ccc(C(C)(C)C)cc2)n[nH]c1=S,inactive,–

# Given bar-delimited: entries from further up.
Compound | Potency | activity change, negative = inhibition
COc1ccc(CNC(=O)CN(Cc2ccc(OC)cc2)C(=O)CCC(=O)Nc2nccs2)cc1 | inconclusive: 1 µM [inhibitor, full curve, poor fit] | –
COc1ccc(C(=O)Nc2nc3c(s2)Cc2cc(OC)ccc2-3)cc1 | inactive | –
